Laboratory results as given in patent US20090036499A1, “FLY CONTROL METHOD” (priority 2007, published 2009).
Some of these results come from one statement about several compounds together.

System: L. serricata (Insect; Blowfly) Larvae
Assay: Blowfly larvae test: compound mixed with dried blood serum on paper discs ingested by larvae
Type: in vivo
Details: 24 hours, four replicates per data point

Row | Structure (SMILES) | mortality (0.5 ppm) | mortality (1.0 ppm)
1 | N#Cc1nn(-c2c(Cl)cc(C(F)(F)F)cc2Cl)c(N)c1[S+]([O-])C(F)(F)F (stereo not drawn) [Fipronil, (.+−.)-5-amino-1-(2,6-dichloro-α,α,α-triflu-oro-p-tolyl)-4-trifluoromethyl-sulphinylpyrazol-3-carbonitrile] | 90-100% | –
2 | CNC(=O)c1cc(Cl)cc(C)c1NC(=O)c1cc(Br)nn1-c1ncccc1Cl [Test Compound, 3-bromo-N-[4-chloro-2-methyl-6-[(methylamino)carbonyl]phenyl]-1-(3-chloro-2-pyridinyl)-1H-pyrazole-5-carboxamide] | – | 90-100%
